Conditions in all cases: RNA concentration 10 µM; fragment concentration 200 µM; 293 K
One assay concerns SARS-CoV-2 3_SL3base RNA. The assay is described as follows: 1H chemical shift perturbation upon RNA addition; higher = stronger binding.
The test system of the next assay is SARS-CoV-2 3_s2m RNA. The assay is described as above.
Another assay concerns SARS-CoV-2 5_SL1234 RNA. The description is as above.
The next assay concerns SARS-CoV-2 5_SL4 RNA. Described as above.
In a further assay the test system is SARS-CoV-2 5_SL5stem RNA. The assay is described as above.
Assay [1] concerns SARS-CoV-2 3'-UTR RNA. The assay is described as follows: waterLOGSY factor (bound vs free ligand) (ratio); higher = stronger binding.
Another assay concerns SARS-CoV-2 5'-UTR RNA. The assay is described as follows: 1H chemical shift perturbation upon RNA addition; higher = stronger binding.
Another assay deals with SARS-CoV-2 5_SL5 RNA. The assay is described as above.
A further assay has as its system SARS-CoV-2 3_SL1+2 RNA. The description is as above.
For assay [2], the system named is SARS-CoV-2 3'-UTR RNA. Described as above.
The test system of another assay is SARS-CoV-2 5_SL5b+c RNA. The assay is described as above.
Another assay deals with SARS-CoV-2 5_SL7 RNA. The description is as above.
In a further assay the test system is SARS-CoV-2 5_SL8 RNA. Described as above.
A further assay deals with SARS-CoV-2 3_SL1 RNA. Nature of the assay: waterLOGSY factor (bound vs free ligand) (ratio); higher = stronger binding.
The test system of the next assay is SARS-CoV-2 5_SL1 RNA. The assay is described as follows: 1H chemical shift perturbation upon RNA addition; higher = stronger binding.
The next assay relates to SARS-CoV-2 5_SL6 RNA. The description is as above.
The test system of assay [3] is SARS-CoV-2 frameshift pseudoknot (PK) RNA. The assay is described as above.

Some of the results follow. Single values are uncertain, as repeats are few or missing.

Turning to `Cc1cccc(NC(=O)Nc2nc(C)cs2)c1`, the “1H chemical shift perturbation upon RNA addition” value came to 13 Hz with SARS-CoV-2 3_SL3base RNA; 6 Hz in the assay on SARS-CoV-2 3_s2m RNA; 11 Hz in the assay on SARS-CoV-2 5_SL1234 RNA; 6 Hz in the assay on SARS-CoV-2 5_SL4 RNA; 7 Hz in the assay on SARS-CoV-2 5_SL5stem RNA. In the assay on SARS-CoV-2 3'-UTR RNA [1], the waterLOGSY factor was determined as 1.61.

Take `O=C(Nc1ccccn1)c1cnccn1`: the entries for the “1H chemical shift perturbation upon RNA addition” value with SARS-CoV-2 5'-UTR RNA and with SARS-CoV-2 5_SL5 RNA were 4 Hz and 5 Hz, respectively.

Regarding `CCCc1nnc(NC(=O)c2ccccn2)s1`, the “1H chemical shift perturbation upon RNA addition” value in the assay on SARS-CoV-2 5'-UTR RNA stood at 6 Hz.

For `Cc1ccccc1OCC(=O)Nc1ncccn1`, the “1H chemical shift perturbation upon RNA addition” value with SARS-CoV-2 5'-UTR RNA amounted to 1 Hz.

On to `Cc1cc(N2CCNCC2)nc(C)n1`, for which the “1H chemical shift perturbation upon RNA addition” value in the assay with SARS-CoV-2 5'-UTR RNA was determined as 4 Hz.

For the compound `CNCc1ccc(C(F)(F)F)cc1`, the “1H chemical shift perturbation upon RNA addition” value is 7 Hz with SARS-CoV-2 3_SL1+2 RNA and 11 Hz with SARS-CoV-2 3_SL3base RNA.

Turning to `Cc1c(Cl)cccc1NC(=O)CN.Cl`, in the assay with SARS-CoV-2 5'-UTR RNA, the “1H chemical shift perturbation upon RNA addition” value worked out at 10 Hz.

As for `c1coc(CNc2nc3ccccc3[nH]2)c1`, the “1H chemical shift perturbation upon RNA addition” value with SARS-CoV-2 3_SL1+2 RNA turned out to be 4 Hz; in the assay with SARS-CoV-2 3_SL3base RNA, 9 Hz; with SARS-CoV-2 5'-UTR RNA, 7 Hz.

Turning to `O=C(Nc1cccnc1)c1cnn2cccnc12`, the “1H chemical shift perturbation upon RNA addition” value was found to be 14 Hz in the assay on SARS-CoV-2 3'-UTR RNA [2] and 12 Hz with SARS-CoV-2 5_SL5 RNA. Besides, the waterLOGSY factor in the assay on SARS-CoV-2 3'-UTR RNA [1] was 6.03.

Turning to `c1ccc(NCC2CCNC2)nc1` (stereo not given), the entries for the “1H chemical shift perturbation upon RNA addition” value in the assay on SARS-CoV-2 5_SL5b+c RNA and in the assay on SARS-CoV-2 5_SL7 RNA were 30 Hz and 27 Hz, respectively.

Turning to `Cc1ccc(Nc2ncnc3[nH]ncc23)cc1`, in the assay on SARS-CoV-2 3'-UTR RNA [2], the “1H chemical shift perturbation upon RNA addition” value was determined as 8 Hz. The waterLOGSY factor in the assay with SARS-CoV-2 3'-UTR RNA [1] came to 4.03.

Take `CN(C)c1ccc(C(=O)Nc2ccncc2)cc1`: the “1H chemical shift perturbation upon RNA addition” value came to 12 Hz with SARS-CoV-2 5_SL1234 RNA; 12 Hz in the assay with SARS-CoV-2 5_SL4 RNA; 15 Hz in the assay on SARS-CoV-2 5_SL5b+c RNA; 14 Hz with SARS-CoV-2 5_SL7 RNA; 11.1 Hz in the assay with SARS-CoV-2 5_SL8 RNA. In addition, the waterLOGSY factor with SARS-CoV-2 3_SL1 RNA amounted to 1.5.

Regarding `CNC(=O)Nc1nc2ccc(OC)cc2s1`, the “1H chemical shift perturbation upon RNA addition” value with SARS-CoV-2 5_SL1 RNA was 8 Hz; with SARS-CoV-2 5_SL1234 RNA it was 8 Hz; with SARS-CoV-2 5_SL4 RNA, 4 Hz.

For the compound `c1ccc(-c2ccc(-n3cnnn3)cc2)cc1`, the entries for the “1H chemical shift perturbation upon RNA addition” value (in the assay with SARS-CoV-2 5_SL6 RNA; in the assay on SARS-CoV-2 5_SL7 RNA; in assay [3]) were 7 Hz, 8 Hz and 3 Hz, respectively.

With `CCN(C)C(=O)c1cccc(N)c1`, the “1H chemical shift perturbation upon RNA addition” value with SARS-CoV-2 5_SL8 RNA came out at 3.26 Hz.

Turning to `CC(=O)Nc1ccncc1C`, the “1H chemical shift perturbation upon RNA addition” value in the assay with SARS-CoV-2 3'-UTR RNA [2] is 14 Hz. Besides, in the assay on SARS-CoV-2 3'-UTR RNA [1], the waterLOGSY factor came out at 1.48.

As for `CC(C)NC(=O)c1ccc2ccccc2n1`, the “1H chemical shift perturbation upon RNA addition” value in the assay with SARS-CoV-2 3'-UTR RNA [2] is 7 Hz. Further, in the assay with SARS-CoV-2 3'-UTR RNA [1], the waterLOGSY factor is 0.586.

Consider `CCNCc1cccc2[nH]ccc12`, for which the “1H chemical shift perturbation upon RNA addition” value with SARS-CoV-2 5'-UTR RNA was 10 Hz.

As for `O=C(NO)c1ccc2ccccc2n1`, the “1H chemical shift perturbation upon RNA addition” value in the assay with SARS-CoV-2 5'-UTR RNA came out at 9 Hz; in the assay with SARS-CoV-2 5_SL5stem RNA, 6 Hz.

As for `Cc1cc2ncn(CC(N)=O)c2cc1C`, the “1H chemical shift perturbation upon RNA addition” value with SARS-CoV-2 3'-UTR RNA [2] was 4 Hz. Besides, the waterLOGSY factor in the assay on SARS-CoV-2 3'-UTR RNA [1] stood at 1.61.

As to `c1cnc(N2CCC3(CCOC3)C2)cn1` (stereo not given), in the assay on SARS-CoV-2 3'-UTR RNA [2], the “1H chemical shift perturbation upon RNA addition” value was 2 Hz. The waterLOGSY factor with SARS-CoV-2 3'-UTR RNA [1] turned out to be 1.27.

For `CNCc1cnn(-c2ccccc2)c1`, the “1H chemical shift perturbation upon RNA addition” value was found to be 10 Hz with SARS-CoV-2 5'-UTR RNA and 13 Hz in the assay on SARS-CoV-2 5_SL5b+c RNA.

Take `COc1ccc(NC(=O)Nc2cccs2)cn1`: the “1H chemical shift perturbation upon RNA addition” value in the assay with SARS-CoV-2 3'-UTR RNA [2] stood at 3 Hz. Besides, the waterLOGSY factor with SARS-CoV-2 3'-UTR RNA [1] was 1.41.

For `CN1CCN(c2ccc(C#N)cc2)CC1`, the “1H chemical shift perturbation upon RNA addition” value in the assay with SARS-CoV-2 3'-UTR RNA [2] is 8 Hz; in the assay on SARS-CoV-2 5_SL7 RNA it was 13 Hz. The waterLOGSY factor in the assay with SARS-CoV-2 3'-UTR RNA [1] is 1.45.

For the compound `COC(=O)Nc1nc2c(C)cccc2s1`, in the assay with SARS-CoV-2 3_SL1 RNA, the waterLOGSY factor was 1.36.

As for `CCOC(=O)c1cc(-c2ccc(C)cc2)no1`, in the assay on SARS-CoV-2 3'-UTR RNA [2], the “1H chemical shift perturbation upon RNA addition” value stood at 18 Hz. The waterLOGSY factor in the assay on SARS-CoV-2 3'-UTR RNA [1] was 2.3.

Turning to `COc1ccc(CN)cc1OC`, the “1H chemical shift perturbation upon RNA addition” value in the assay on SARS-CoV-2 5_SL5b+c RNA amounted to 6 Hz.

Take `COc1ccc(C(=O)Nc2ccccc2F)cc1`: the “1H chemical shift perturbation upon RNA addition” value in the assay on SARS-CoV-2 3'-UTR RNA [2] was found to be 7 Hz. The waterLOGSY factor with SARS-CoV-2 3'-UTR RNA [1] turned out to be 1.06.

For the compound `CNc1nccc(OC)n1`, the “1H chemical shift perturbation upon RNA addition” value with SARS-CoV-2 3'-UTR RNA [2] is 11 Hz. Moreover, in the assay with SARS-CoV-2 3'-UTR RNA [1], the waterLOGSY factor stood at 1.81.

For the compound `CC(=O)Nc1ccc2[nH]c(=O)[nH]c2c1`, the “1H chemical shift perturbation upon RNA addition” value in the assay on SARS-CoV-2 3'-UTR RNA [2] was found to be 5 Hz. Moreover, the waterLOGSY factor in the assay with SARS-CoV-2 3'-UTR RNA [1] is 2.69.

For the origin of these results see the supplement of paper PMC8426693.
